Measurements as given in ChEMBL document CHEMBL4020704, “Metabolite diversification by cultivation of the endophytic fungus Dothideomycete sp. in halogen containing media: Cultivation of terrestrial fungus in seawater” (Bioorg Med Chem, 2017).
≈ marks a conversion by molar mass, not a printed value.

Columns and labels:
[1] = test system: Candida albicans; experiment: microbe, parasite or virus in culture; settings: 20 h
[2] = test system: HepG2; experiment: Cytotoxic activity against human HepG2 cells by MTT assay; type: functional, cell-based
Summary of the method: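 Adherent cancer cell lines, viability read by MTT assay. Doxorubicin served as reference drug for A549, HepG2 and HuCCA-1, and etoposide also for HepG2. IC50 determined.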

[3] = test system: A549; experiment: cells; settings: Homo sapiens

Row | Compound | MIC [1] | IC50 [2] | IC50 [3]
1 | C[C@@H]1[C@H](O)[C@@H](C)/C=C/C=C/C=C/C=C/C=C/C=C/C=C/[C@H](O[C@@H]2O[C@H](C)[C@@H](O)[C@H](N)[C@@H]2O)C[C@@H]2O[C@](O)(C[C@@H](O)C[C@@H](O)[C@H](O)CC[C@@H](O)C[C@@H](O)CC(=O)O[C@H]1C)C[C@H](O)[C@H]2C(=O)O [AMPHOTERICIN B] | 0.78 µg/mL (≈ 0.844 µM) |  | 
2 | COc1cccc2c1C(=O)c1c(O)c3c(c(O)c1C2=O)C[C@@](O)(C(=O)CO)C[C@@H]3O[C@H]1C[C@H](N)[C@H](O)[C@H](C)O1 [DOXORUBICIN] |  | 0.22 µg/mL (≈ 0.405 µM) | 0.27 µg/mL (≈ 0.497 µM)
